The other results are listed elsewhere or left out.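 Rule for the calls: active = mitochondrial OCR inhibition above 30% at 1 uM; inactive = 30% or less.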 Most values come without repeats; read them as rough.
The compounds below were run on Toxoplasma gondii RH tachyzoites (assay: inhibition of mitochondrial O2 consumption rate (% inhibition (relative to pre-injection OCR and atovaquone/antimycin A control)); higher = stronger ETC inhibition). Details: 1 µM; injection port (sequential injection order): B.
With CO[C@H]1/C=C/O[C@@]2(C)Oc3c(C)c(O)c4c(O)c(/c(=C/NN5CCN(C)CC5)c(O)c4c3C2=O)=N\C(=O)/C(C)=C\C=C/[C@H](C)[C@H](O)[C@@H](C)[C@@H](O)[C@@H](C)[C@H](OC(C)=O)[C@@H]1C the “inhibition of mitochondrial O2 consumption rate” value (“inhibition” below) was inactive: -3.21. CCOc1ccc(OCC(=O)Nc2cc(C)cc(C)c2)cc1 was tested, and the “inhibition” value was inactive: -7.33. For Cc1cnc(N2CCN[C@@H](Cc3ccccc3)C2)nc1Oc1ccc(-n2ccnc2)cc1, the “inhibition” value was inactive: -12. For CO[C@@H](C(=O)N1Cc2[nH]nc(NC(=O)c3ccc(N4CCN(C)CC4)cc3)c2C1)c1ccccc1, the “inhibition” value was inactive: -5.6. CC(C)C(C(=O)Nc1ccc(S(=O)(=O)N(C)C)cc1)c1ccc(Cl)cc1 (centres undefined) was tested, and the “inhibition” value was inactive: -9.09. With CCS(=O)(=O)N(Cc1ccco1)Cc1cc2ccc(C)cc2nc1O the “inhibition” value was inactive: 3.98. In the case of CS(=O)(=O)c1ccc(C(=O)N(CC2CCCO2)c2nc3ccccc3s2)cc1[N+](=O)[O-] (centres undefined), the “inhibition” value was inactive: 2.68. With Cc1ccc2cc(C3NC(=O)c4ccccc4N3)c(Cl)nc2c1 (centres undefined) the “inhibition” value was inactive: -1.61. Cc1nc(-c2ccccn2)nc(N(C)CCc2ccccc2)c1Cl was tested, and the “inhibition” value was inactive: -2.59. For COc1cc(NC(C)CCCN)c2ncccc2c1 (centres undefined), the “inhibition” value was inactive: -4.49. For c1ccc(-c2[nH]c3ccccc3c2C(c2ccccn2)N2CCCC2)cc1 (centres undefined), the “inhibition” value was inactive: -3.2. For CC(C)N=c1cc2n(-c3ccc(Cl)cc3)c3ccccc3nc-2cc1Nc1ccc(Cl)cc1, the “inhibition” value was inactive: -2.01. In the case of CNC1C(OC2C(OC3C(O)C(O)C(NC(=N)N)C(O)C3NC(=N)N)OC(C)C2(O)C=O)OC(CO)C(O)C1O (centres undefined), the “inhibition” value was inactive: -4.8. For Nc1ncc(Br)cc1-c1nc2cc(Cl)cnc2[nH]1, the “inhibition” value was inactive: -10.2. C[C@H]1COc2c(N3CCN(C)CC3)c(F)cc3c(=O)c(C(=O)O)cn1c23 was tested, and the “inhibition” value was inactive: -3.79. With CNC(=O)c1nn(C)c2c1C(C)(C)Cc1cnc(Nc3ccc(N4CCN(C)CC4)cc3)nc1-2 the “inhibition” value was inactive: -0.547. In the case of CCOc1ccc2cc(-c3nn(CC4CCN(C)CC4)c4ncnc(N)c34)ccc2c1, the “inhibition” value was inactive: 3.66. In the case of COc1ccc(Cl)cc1NC(=O)CN(C)C(=O)c1cnn(-c2ccccc2)n1, the “inhibition” value was inactive: -1.99. CCOc1ccc2cc(-c3nn(C(C)(C)C)c(N)c3C(N)=O)cnc2c1 was tested, and the “inhibition” value was active: 42.2. In the case of Cc1cccc(NC(=O)c2cc(S(=O)(=O)N(C)c3ccc(F)cc3)ccc2Cl)n1, the “inhibition” value was inactive: -3.88.

Same assay, conditions: 1 µM; injection port (sequential injection order): C
With CC(C)=CCC/C(C)=C\CNCCNC1C2CC3CC(C2)CC1C3 (centres undefined) the “inhibition” value was inactive: -19.3. CNc1cc(C)nc(C2CN(C(=O)c3n[nH]c4ccccc34)CCO2)c1 (centres undefined) was tested, and the “inhibition” value was inactive: -20. For COc1ccc(N(CCc2cccc(C)n2)C(=O)C2CCCCC2)cc1, the “inhibition” value was inactive: -21.4. With O=C(NCCc1ccn(-c2ccccc2)n1)C1CCCCC1 the “inhibition” value was inactive: -21.8. In the case of COc1cc(C(F)(F)F)nc2ccc(C)c(N)c12, the “inhibition” value was inactive: -16.8. With N#CCN(CCCCN1CCN(c2ccc(F)cc2)CC1)C(=O)OCc1ccccc1 the “inhibition” value was inactive: -2.07. For C[C@H](c1ccc2c(c1)CCCC2)N(C)c1ncc2c(N)nc(N)nc2n1, the “inhibition” value was inactive: -3.96. In the case of Cc1cc(NC(=O)c2ccc(Oc3ccc(Cl)cc3O)o2)no1, the “inhibition” value was inactive: -5.5. In the case of Cc1cc(OCC(=O)Nc2ccc(C(C)C)cc2)n(C)c(=O)c1C#N, the “inhibition” value was inactive: -9.17.
